Source: the supplement of paper PMC10849652
The list shows a part of the results.

By UniProt entry, the sequences of proteins in these tests, tags left out. Where a name states a change or a piece, a line headed by the entry shows the natural chain unless it says otherwise.
UniProt P78364: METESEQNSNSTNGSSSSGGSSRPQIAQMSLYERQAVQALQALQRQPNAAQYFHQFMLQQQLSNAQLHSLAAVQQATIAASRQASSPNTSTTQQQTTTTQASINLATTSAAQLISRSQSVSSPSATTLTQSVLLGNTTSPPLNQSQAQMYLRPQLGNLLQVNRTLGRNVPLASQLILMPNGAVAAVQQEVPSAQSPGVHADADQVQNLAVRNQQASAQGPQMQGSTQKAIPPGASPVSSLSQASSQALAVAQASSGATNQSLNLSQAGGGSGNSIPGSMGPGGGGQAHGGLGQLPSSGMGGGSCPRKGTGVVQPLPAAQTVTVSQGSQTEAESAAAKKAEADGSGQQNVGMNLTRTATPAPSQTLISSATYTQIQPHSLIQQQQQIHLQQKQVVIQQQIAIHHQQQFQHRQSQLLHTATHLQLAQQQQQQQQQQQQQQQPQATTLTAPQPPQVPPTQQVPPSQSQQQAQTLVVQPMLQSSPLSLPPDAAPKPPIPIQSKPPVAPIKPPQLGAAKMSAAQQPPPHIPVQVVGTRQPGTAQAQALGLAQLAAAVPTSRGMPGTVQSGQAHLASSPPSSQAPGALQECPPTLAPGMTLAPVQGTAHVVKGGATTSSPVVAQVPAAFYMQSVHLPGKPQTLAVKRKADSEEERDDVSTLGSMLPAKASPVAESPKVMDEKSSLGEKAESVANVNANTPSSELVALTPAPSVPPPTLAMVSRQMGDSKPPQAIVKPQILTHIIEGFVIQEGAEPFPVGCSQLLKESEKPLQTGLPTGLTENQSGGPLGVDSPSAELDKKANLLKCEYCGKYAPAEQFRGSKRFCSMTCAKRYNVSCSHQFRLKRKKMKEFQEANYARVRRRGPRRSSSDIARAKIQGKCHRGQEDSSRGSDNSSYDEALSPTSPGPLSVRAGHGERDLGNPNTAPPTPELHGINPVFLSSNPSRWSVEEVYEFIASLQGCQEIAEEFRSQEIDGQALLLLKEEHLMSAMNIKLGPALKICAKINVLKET
UniProt O00562: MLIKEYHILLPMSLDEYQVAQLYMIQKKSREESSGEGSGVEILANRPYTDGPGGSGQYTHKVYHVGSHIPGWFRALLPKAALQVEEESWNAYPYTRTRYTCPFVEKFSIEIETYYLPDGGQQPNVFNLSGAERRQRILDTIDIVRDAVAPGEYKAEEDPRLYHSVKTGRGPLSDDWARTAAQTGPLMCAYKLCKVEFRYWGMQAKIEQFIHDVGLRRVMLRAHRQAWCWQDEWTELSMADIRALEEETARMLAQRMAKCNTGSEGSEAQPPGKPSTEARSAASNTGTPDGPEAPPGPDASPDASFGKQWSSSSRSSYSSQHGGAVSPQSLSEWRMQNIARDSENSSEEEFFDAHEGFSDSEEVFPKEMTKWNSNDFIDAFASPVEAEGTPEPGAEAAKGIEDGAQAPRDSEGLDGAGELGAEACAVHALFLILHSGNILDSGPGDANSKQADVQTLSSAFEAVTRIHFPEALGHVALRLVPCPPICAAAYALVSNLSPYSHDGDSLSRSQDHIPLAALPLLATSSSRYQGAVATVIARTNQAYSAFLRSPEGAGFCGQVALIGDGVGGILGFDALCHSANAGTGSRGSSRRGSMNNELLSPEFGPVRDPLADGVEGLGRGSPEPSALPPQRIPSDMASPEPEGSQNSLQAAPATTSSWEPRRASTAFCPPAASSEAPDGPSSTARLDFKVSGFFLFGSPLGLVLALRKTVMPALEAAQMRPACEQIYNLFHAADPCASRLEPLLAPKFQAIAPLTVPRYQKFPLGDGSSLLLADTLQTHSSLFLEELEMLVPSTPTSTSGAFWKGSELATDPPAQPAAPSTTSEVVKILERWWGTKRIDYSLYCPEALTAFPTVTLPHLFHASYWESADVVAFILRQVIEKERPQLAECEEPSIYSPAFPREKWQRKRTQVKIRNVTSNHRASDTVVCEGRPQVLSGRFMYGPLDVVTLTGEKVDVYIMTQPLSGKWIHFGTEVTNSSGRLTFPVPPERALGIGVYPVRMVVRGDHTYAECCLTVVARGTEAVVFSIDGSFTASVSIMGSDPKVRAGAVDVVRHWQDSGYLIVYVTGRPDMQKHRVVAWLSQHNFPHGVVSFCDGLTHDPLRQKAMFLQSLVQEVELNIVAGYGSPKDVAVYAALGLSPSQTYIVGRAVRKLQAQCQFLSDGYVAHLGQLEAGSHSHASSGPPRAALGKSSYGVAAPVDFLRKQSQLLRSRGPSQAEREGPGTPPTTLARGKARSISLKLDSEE
UniProt P0C869: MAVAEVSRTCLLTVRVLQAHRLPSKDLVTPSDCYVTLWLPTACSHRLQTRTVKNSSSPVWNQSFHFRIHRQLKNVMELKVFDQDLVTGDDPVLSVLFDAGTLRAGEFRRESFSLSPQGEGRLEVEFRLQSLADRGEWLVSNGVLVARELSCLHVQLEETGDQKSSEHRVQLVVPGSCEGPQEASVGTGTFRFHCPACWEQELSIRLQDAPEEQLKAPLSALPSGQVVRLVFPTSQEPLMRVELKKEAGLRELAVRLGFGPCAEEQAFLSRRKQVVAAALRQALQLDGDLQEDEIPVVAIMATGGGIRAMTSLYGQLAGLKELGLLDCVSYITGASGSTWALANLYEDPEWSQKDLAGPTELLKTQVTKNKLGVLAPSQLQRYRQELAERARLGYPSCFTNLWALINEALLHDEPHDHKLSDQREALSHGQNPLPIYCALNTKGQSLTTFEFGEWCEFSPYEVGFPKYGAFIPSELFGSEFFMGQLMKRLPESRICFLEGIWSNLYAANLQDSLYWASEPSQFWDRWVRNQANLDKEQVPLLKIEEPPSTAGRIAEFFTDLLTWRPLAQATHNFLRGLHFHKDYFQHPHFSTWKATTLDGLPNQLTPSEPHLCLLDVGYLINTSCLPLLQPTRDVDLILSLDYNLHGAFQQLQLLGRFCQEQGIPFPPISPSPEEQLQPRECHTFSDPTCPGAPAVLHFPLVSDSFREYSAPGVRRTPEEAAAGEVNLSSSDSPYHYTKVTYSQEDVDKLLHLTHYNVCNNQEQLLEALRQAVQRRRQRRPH
UniProt P78337, whole entry, looked up: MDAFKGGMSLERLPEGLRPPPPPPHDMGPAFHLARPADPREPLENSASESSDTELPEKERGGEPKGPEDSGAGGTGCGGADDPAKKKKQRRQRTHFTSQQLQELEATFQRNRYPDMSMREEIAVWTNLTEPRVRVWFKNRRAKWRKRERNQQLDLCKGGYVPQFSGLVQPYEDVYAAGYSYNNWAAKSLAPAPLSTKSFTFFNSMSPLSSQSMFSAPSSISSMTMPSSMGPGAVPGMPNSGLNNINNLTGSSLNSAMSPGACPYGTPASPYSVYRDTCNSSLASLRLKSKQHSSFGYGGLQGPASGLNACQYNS
UniProt Q13526, whole entry, looked up: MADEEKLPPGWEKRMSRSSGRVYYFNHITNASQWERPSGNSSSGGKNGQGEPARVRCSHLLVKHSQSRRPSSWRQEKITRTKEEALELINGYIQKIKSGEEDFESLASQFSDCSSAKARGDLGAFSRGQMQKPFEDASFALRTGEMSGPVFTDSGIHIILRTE
UniProt Q6P4A8: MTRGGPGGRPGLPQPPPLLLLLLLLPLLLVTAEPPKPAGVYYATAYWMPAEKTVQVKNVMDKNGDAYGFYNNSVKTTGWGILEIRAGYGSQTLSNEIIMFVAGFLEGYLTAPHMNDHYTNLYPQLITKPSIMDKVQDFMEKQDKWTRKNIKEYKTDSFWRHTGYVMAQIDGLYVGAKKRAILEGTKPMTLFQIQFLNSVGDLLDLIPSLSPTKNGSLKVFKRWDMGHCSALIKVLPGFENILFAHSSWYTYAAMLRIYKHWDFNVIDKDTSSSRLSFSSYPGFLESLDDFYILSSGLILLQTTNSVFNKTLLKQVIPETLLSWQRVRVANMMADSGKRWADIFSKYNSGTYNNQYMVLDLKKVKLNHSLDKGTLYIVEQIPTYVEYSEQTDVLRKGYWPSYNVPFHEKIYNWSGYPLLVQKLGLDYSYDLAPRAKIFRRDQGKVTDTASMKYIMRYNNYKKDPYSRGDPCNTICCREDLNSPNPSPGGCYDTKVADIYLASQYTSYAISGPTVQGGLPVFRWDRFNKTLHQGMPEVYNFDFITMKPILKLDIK
UniProt Q8TBX8: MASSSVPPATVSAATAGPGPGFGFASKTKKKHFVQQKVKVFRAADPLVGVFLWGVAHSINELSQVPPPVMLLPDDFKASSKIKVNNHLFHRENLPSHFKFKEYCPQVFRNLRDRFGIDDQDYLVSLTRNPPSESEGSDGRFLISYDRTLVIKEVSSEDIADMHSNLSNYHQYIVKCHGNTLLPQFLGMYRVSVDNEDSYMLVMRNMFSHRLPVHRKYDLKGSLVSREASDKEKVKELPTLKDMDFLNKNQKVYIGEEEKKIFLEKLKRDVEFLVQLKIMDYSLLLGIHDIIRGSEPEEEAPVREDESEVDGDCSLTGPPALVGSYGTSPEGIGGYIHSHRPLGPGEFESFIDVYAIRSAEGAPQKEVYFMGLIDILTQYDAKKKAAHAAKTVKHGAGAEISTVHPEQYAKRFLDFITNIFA
UniProt Q96S52: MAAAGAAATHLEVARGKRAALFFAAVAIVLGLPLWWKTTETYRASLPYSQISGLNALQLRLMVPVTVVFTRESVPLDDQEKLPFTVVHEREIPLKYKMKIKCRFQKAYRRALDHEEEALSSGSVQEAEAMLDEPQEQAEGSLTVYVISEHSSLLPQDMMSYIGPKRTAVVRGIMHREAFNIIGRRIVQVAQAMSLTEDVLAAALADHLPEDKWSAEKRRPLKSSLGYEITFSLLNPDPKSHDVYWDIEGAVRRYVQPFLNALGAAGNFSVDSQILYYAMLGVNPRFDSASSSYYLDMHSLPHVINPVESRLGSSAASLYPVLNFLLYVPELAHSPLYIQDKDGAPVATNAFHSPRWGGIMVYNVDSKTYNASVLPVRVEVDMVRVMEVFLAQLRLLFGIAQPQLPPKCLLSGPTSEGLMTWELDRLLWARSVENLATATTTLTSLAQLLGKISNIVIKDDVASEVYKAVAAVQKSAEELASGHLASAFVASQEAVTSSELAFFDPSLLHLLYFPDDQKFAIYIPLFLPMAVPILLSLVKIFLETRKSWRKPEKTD
UniProt Q13393: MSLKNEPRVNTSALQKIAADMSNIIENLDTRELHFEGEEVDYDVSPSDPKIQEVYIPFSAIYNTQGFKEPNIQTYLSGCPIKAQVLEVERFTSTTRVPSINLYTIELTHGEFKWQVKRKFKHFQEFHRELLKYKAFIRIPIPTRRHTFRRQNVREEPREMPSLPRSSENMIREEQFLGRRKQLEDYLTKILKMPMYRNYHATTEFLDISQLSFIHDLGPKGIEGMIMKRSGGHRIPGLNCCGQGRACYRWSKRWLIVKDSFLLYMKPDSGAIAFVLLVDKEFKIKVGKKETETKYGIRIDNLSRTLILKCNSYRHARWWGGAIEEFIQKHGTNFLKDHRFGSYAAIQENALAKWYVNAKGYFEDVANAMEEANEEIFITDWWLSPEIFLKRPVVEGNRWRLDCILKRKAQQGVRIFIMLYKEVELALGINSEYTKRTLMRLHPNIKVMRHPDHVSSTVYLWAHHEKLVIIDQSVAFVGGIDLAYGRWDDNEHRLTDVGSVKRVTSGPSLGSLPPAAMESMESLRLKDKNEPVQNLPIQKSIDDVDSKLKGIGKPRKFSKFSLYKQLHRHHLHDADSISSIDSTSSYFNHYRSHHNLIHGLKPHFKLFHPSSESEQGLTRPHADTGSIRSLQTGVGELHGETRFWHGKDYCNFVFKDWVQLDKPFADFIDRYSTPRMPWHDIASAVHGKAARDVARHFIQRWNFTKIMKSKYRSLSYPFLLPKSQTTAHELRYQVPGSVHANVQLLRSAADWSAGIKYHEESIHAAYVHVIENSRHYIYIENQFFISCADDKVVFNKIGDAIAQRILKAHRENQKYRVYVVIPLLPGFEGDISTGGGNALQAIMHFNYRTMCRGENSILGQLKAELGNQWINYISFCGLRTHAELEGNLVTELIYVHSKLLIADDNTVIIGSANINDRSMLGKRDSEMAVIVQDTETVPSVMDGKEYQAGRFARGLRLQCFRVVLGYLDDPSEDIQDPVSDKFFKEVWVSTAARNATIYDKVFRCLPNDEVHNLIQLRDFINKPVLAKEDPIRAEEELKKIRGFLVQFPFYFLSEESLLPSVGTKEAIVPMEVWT
UniProt Q9BZM1: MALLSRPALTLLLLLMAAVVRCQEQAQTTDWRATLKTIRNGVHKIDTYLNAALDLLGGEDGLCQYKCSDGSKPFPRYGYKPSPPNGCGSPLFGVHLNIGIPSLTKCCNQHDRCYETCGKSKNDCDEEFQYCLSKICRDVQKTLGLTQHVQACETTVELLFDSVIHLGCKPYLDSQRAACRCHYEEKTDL
UniProt Q00169: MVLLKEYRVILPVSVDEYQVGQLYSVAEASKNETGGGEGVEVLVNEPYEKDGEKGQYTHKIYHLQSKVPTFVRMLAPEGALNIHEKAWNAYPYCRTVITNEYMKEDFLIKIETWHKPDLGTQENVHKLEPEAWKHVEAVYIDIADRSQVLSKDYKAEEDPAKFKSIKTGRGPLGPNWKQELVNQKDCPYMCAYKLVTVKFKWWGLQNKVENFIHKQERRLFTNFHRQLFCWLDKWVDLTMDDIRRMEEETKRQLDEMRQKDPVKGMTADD

How the values were obtained:
Assay in all cases: log2 fold change, soluble protein after heating vs DMSO (PISA); higher = thermal stabilisation; K562 lysate, 10 uM; active = over 0.2 and 3.5 SD of the protein, either way, in both replicates (recomputed)
[1] = compound: C1=CC=C(C=C1)[C@H](COC2=CC3=C(C=C2)NC(=O)N3)NC(=O)C4=CC=CN(C4=O)CC5=CC(=C(C=C5)F)F
How it was run: (§1)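 Thermal stability, expressed as log-two fold change relative to solvent controls, is given from duplicates. Crude K562 extract in PBS pH 7.4 with 1 mM MgCl2, at 1 mg/mL protein, was treated with 10 μM compound for 30 min and heated in aliquots for 3 min across 48°C-58°C. After pooling, adjustment to 0.5% NP-40 at 4°C and centrifugation at 21,000xg for 90 min, supernatant protein was measured by TMTpro 16plex LC-MS/MS with channel sums equalised.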

[2] = compound: CC1=C(SC2=C1C(=N[C@H](C3=NN=C(N32)C)CC(=O)N)C4=CC=C(C=C4)Cl)C
How it was run: as §1

[3] = compound: CC1=C2C(=CC=C1)N=C(N(C2=O)C3=CC=CC=C3C)CN4C=NC5=C(N=CN=C54)N
How it was run: as §1

[4] = compound: Cc1sc2c(c1C)C(c1ccc(Cl)cc1)=N[C@@H](CC(=O)OC(C)(C)C)c1nnc(C)n1-2
How it was run: as §1

[5] = compound: c1ccc([C@@H]2C[C@H]2NC2CCNCC2)cc1
How it was run: as §1

Measured: log2 fold change

PHLDB1 (UniProt Q86UU1)
inactive: [1] -0.006 | [2] 0.007 | [3] 0.054 | [4] -0.027 | [5] 0.036

PHC1 (UniProt P78364)
inactive: [1] 0.025 | [2] 0.001 | [3] 0.041 | [4] -0.049

PLCB3 (UniProt Q01970)
inactive: [1] 0.021 | [2] 0.016 | [3] 0.031 | [4] 0.008 | [5] 0.02

PHPT1 (UniProt Q9NRX4)
inactive: [1] -0.02 | [2] -0.031 | [3] -0.027 | [4] 0.007 | [5] 0.012

PGP (UniProt A6NDG6)
inactive: [1] -0.008 | [2] -0.009 | [3] -0.006 | [4] 0.04 | [5] -0.036

PITPNM1 (UniProt O00562)
inactive: [1] -0.294 | [2] -0.176

PLA2G4B isoform 6 (UniProt P0C869)
inactive: [1] -0.003 | [2] 0.024 | [3] -0.052 | [4] 0.099 | [5] -0.019

PHOX2B (UniProt Q99453)
inactive: [1] 0.013 | [2] 0.033 | [3] -0.052 | [4] -0.388

PITX1 (UniProt P78337)
inactive: [1] -0.185 | [2] -0.127 | [3] 0.027 | [4] 0.149

PICK1 (UniProt Q9NRD5)
inactive: [1] -0.034 | [2] -0.004 | [3] -0.057 | [4] 0.087 | [5] -0.047

PHKA1 (UniProt P46020)
inactive: [1] 0.033 | [2] 0.02 | [3] 0 | [4] -0.008 | [5] 0.001

PIN1 (UniProt Q13526)
inactive: [1] 0.012 | [2] -0.068 | [3] -0.006 | [4] 0.012 | [5] -0.018

PLBD1 (UniProt Q6P4A8)
inactive: [1] -0.026 | [2] 0.014 | [3] -0.012 | [4] -0.099 | [5] -0.06

Retrieved one by one from the list above (2):
PLBD1 (UniProt Q6P4A8)
inactive: [1] -0.026 | [2] 0.014 | [3] -0.012 | [4] -0.099 | [5] -0.06

PHKA1 (UniProt P46020)
inactive: [1] 0.033 | [2] 0.02 | [3] 0 | [4] -0.008 | [5] 0.001

Additional records

PKLR (UniProt P30613)
inactive: [1] 0.01 | [2] 0.03 | [3] -0.012 | [4] -0.022 | [5] -0.015

PIGT (UniProt Q969N2)
inactive: [1] -0.05 | [2] 0.02 | [3] 0.006 | [4] 0.009 | [5] -0.014

PIGO (UniProt Q8TEQ8)
inactive: [1] -0.098 | [2] -0.058 | [3] -0.014 | [4] -0.023 | [5] 0.039

PIP4K2C (UniProt Q8TBX8)
inactive: [1] -0.12 | [2] -0.062 | [3] -0.113 | [4] -0.023 | [5] -0.011

PIGS (UniProt Q96S52)
inactive: [1] -0.064 | [2] 0.015 | [3] 0.061 | [4] 0.001 | [5] 0.061

PIKFYVE (UniProt Q9Y2I7)
inactive: [1] -0.005 | [2] 0.007 | [3] 0.016 | [4] 0.054 | [5] -0.03

PLD1 (UniProt Q13393)
inactive: [1] 0.026 | [2] 0.015 | [3] 0.006 | [4] -0.004 | [5] -0.056

PLA2G12A (UniProt Q9BZM1)
inactive: [1] 0.195 | [2] 0.078 | [3] 0.059 | [4] 0.028 | [5] -0.084

PGRMC1 (UniProt O00264)
inactive: [1] 0.073 | [2] -0.038 | [3] 0.008 | [4] -0.031 | [5] -0.039

PHF10 (UniProt Q8WUB8)
inactive: [1] 0.026 | [2] 0.019 | [3] -0.025 | [4] 0.008 | [5] -0.028

PITPNA (UniProt Q00169)
inactive: [1] 0.026 | [2] 0.035 | [3] 0.02 | [4] -0.048 | [5] 0.044

PIM1 isoform 2 (UniProt P11309)
inactive: [1] -0.115 | [2] -0.046 | [3] -0.127 | [4] -0.025 | [5] -0.191
